This passage reports binding results from article PMC5518511.

Protein sequences, listed by entry. Tags and fused reporters are not part of them.
UniProt O14977: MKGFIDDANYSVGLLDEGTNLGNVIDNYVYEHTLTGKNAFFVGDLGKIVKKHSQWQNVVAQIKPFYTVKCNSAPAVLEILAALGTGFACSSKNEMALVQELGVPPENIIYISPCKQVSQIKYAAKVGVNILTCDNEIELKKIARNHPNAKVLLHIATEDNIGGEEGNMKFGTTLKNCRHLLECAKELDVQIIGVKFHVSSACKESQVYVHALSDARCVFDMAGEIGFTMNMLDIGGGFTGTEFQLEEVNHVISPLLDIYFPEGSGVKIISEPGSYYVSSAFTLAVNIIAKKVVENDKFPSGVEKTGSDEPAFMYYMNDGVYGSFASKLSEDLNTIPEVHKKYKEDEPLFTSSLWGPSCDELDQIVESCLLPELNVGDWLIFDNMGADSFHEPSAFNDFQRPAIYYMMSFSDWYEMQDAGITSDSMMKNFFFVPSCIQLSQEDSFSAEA
UniProt P54368: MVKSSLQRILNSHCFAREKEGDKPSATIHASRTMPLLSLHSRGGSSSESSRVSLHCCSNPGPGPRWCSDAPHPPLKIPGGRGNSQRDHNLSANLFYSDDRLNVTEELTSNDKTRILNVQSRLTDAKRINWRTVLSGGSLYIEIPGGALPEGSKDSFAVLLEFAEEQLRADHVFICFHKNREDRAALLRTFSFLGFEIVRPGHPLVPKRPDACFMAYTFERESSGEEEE
UniProt P00860: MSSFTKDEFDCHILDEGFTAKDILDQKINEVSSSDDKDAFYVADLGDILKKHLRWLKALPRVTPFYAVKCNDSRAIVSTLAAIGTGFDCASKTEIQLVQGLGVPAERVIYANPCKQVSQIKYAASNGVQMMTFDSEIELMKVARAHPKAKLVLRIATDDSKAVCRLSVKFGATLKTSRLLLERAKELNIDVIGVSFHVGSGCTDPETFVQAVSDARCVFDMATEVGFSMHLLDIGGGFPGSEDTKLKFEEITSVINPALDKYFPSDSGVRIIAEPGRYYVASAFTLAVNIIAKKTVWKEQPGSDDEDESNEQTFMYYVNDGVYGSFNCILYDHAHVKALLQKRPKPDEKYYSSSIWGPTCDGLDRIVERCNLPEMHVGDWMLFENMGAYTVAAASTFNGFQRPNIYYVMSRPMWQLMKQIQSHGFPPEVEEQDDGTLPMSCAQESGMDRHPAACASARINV

For assay [1], the target named is ODC antizyme inhibitor 1 (AZIN1), human (human) (UniProt O14977). Put plainly: co-IP; Cos-7 cells co-transfected with FLAG- and Myc-tagged constructs; FLAG-tagged protein immunoprecipitated from lysate with mouse anti-FLAG antibody and protein G-agarose; co-precipitated Myc-tagged protein detected by blot with rabbit anti-Myc antibody (Figure 5, Supplementary Fig. S4).

A further assay concerns the target ODC antizyme 1 (OAZ1) (UniProt P54368). Briefly: co-IP; Cos-7 cells co-transfected with FLAG- and Myc-tagged constructs; Myc-tagged protein immunoprecipitated from lysate with mouse anti-Myc antibody and protein G-agarose; co-precipitated FLAG-tagged protein detected by blot with rabbit anti-FLAG antibody (Figure 6A).
Assay [2] concerns the target ornithine decarboxylase (ODC), mouse (mouse) (UniProt P00860). Put plainly: co-IP; Cos-7 cells co-transfected with FLAG- and Myc-tagged constructs; FLAG-tagged protein immunoprecipitated from lysate with mouse anti-FLAG antibody and protein G-agarose; co-precipitated Myc-tagged protein detected by blot with rabbit anti-Myc antibody (Figure 5, Supplementary Fig. S4).
Assay [3] has the same target. Briefly: co-IP; Cos-7 cells co-transfected with FLAG- and Myc-tagged constructs; Myc-tagged protein immunoprecipitated from lysate with mouse anti-Myc antibody and protein G-agarose; co-precipitated FLAG-tagged protein detected by blot with rabbit anti-FLAG antibody (Figure 6A).

No constants are given. Whether binding was seen depends on the method and setting. In cells and extracts the contact can be indirect. Some binding calls cover weakened binding; strength is not graded here.

“ODC antizyme 1 (OAZ1) (from UniProt P54368 1-228)”: the binding entry in assay [1] is reported as “binds”. As to “ODC antizyme inhibitor 1 (AZIN1), human (from UniProt O14977 1-448)”, in the assay with ODC antizyme 1 (OAZ1), the binding entry was “binds”. Take “ornithine decarboxylase (ODC), mouse (from UniProt P00860 1-461) (enzyme)”: the binding entry in assay [2] and in assay [3] was “binds” in each case.
